# Literature values in US20070208043A1, “Use of Serum Amyloid A Gene in Diagnosis and Treatment of Glaucoma and Identification of Anti-Glaucoma Agents” (ALCON, INC., priority 2003, published 2007).
# At least one structure is not confirmed: it was looked up by name or label, or the drawing left a doubt.
# System: plasma SAA concentration
# Details: in vivo; cited from earlier work
smiles,measurement,value
CC(C)OC(=O)C(C)(C)Oc1ccc(C(=O)c2ccc(Cl)cc2)cc1 [Fenofibrate],Plasma SAA concentration,reduces
